Patent publication US20220041681A1 (MEDIMMUNE LIMITED, priority 2016, published 2022)
Not every detail of the peptide structures is certain; ends, links or a residue may be inferred. Ends that are not written are not given here.

Chains of the proteins cited; added tags and fusions are not shown. Residues count along the entry.
UniProt P47871, 26-477: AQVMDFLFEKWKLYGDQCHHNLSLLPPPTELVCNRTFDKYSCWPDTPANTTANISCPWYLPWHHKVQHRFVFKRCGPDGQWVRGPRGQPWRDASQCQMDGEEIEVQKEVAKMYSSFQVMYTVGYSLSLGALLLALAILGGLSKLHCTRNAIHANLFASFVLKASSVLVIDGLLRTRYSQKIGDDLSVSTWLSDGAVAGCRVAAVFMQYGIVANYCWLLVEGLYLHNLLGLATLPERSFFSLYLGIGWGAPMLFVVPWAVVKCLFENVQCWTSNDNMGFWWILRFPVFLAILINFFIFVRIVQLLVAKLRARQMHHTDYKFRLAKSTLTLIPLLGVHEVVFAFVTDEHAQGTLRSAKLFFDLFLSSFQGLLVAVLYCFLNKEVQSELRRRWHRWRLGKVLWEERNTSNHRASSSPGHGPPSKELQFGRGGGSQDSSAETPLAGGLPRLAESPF
UniProt P43220, 24-463: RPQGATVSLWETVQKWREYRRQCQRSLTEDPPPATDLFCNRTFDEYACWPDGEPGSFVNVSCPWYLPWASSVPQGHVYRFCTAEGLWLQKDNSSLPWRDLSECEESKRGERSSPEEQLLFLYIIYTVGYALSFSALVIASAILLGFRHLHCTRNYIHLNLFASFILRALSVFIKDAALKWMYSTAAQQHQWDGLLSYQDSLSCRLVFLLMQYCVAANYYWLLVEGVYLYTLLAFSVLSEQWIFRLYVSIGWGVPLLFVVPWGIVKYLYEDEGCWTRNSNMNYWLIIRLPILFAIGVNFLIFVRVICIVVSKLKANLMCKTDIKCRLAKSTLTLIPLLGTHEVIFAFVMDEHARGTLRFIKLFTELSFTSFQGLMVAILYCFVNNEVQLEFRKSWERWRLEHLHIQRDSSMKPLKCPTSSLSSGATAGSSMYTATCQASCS

What was measured:
Assay in all cases: cAMP activity assay (assay 1) in assay medium
Type in all cases: cell-based
Human GIPr = molecular target: T1, Human GIPr (Homo sapiens, UniProt P48546); details: Table 4, additional peptides, read-out: hGIPR EC50
T1 sequence (P48546 22-466): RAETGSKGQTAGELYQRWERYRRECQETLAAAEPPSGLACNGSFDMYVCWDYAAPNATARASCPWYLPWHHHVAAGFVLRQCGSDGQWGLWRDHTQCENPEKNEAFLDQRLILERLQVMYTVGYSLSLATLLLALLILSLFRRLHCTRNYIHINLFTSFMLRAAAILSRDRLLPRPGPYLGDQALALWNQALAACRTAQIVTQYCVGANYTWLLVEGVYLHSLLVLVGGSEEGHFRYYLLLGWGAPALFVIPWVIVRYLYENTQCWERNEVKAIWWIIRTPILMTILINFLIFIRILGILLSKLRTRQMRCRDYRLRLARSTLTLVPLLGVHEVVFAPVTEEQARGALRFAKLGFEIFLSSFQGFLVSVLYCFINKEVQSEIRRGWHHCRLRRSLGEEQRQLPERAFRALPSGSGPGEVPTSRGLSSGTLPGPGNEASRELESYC

Human GlucR = molecular target: T2, Human GlucR (Homo sapiens, UniProt P47871); details: Table 4, additional peptides, read-out: hGlucR EC50
T2 construct: expressed in transfected cells

Human GLP1R = Human GLP1R (Homo sapiens, UniProt P43220); details: Table 4, additional peptides, read-out: hGLP1R EC50

Substance: HSQGTFTSDYSKYLDSRRAQDFVQWLVAGGKNNRNNIAK-NH2 [g321]
- EC50 (Human GIPr): 6.41 nM
- EC50 (Human GlucR): 0.0279 nM
- EC50 (Human GLP1R): 0.0272 nM
